Reference: PMC8632988, “Inhibition of SYK and cSrc kinases can protect bone and cartilage in preclinical models of osteoarthritis and rheumatoid arthritis” (Scientific Reports, 2021)
Several values for one entry are separate records, joined by “and”; a condition that tells them apart may be missing. Identical values can stand only once. Further values from the same series stand in other lists.

Assay: Pharmacokinetics after single oral administration to rats
Type: in vivo, rat
Conditions: male Wistar rats
Protocol: Experiments were performed at ChemPartner, Shanghai, China and approved by Institutional Ethics Committee (IEC) of ChemPartner. Male Wistar 10–12 weeks old rats with body weights of 185–220 g and male New Zealand rabbits with body weights of 2.0–2.3 kg were purchased from Shanghai SLAC Laboratory Animal Co., Ltd. MT-SYK-03 was administered to the three groups of rats (six rats per group) via oral gavage at 10 mL/kg concentration, and in rabbits 5 mL/kg concentration. Blood samples were kept on ice and centrifuged (2000 g, 4 ℃, 5 min) within 15 min post sampling.

## COc1cc(Nc2ncnc(Nc3cc4c(cn3)NC(=O)C(C)(C)O4)n2)cc(OC)c1OC [MT-SYK-03]
Table S7, 100 mg/kg PO, 0.25 h, individual Rat#7-12
  Plasma concentration: 401 ng/mL and 436 ng/mL and 404 ng/mL and 463 ng/mL and 388 ng/mL
Table S7, 100 mg/kg PO, 0.5 h, individual Rat#7-12
  Plasma concentration: 654 ng/mL and 612 ng/mL and 677 ng/mL and 709 ng/mL and 707 ng/mL
Table S7, 100 mg/kg PO, 1 h, individual Rat#7-12
  Plasma concentration: 1060 ng/mL and 760 ng/mL and 879 ng/mL and 883 ng/mL and 805 ng/mL
Table S7, 100 mg/kg PO, 2 h, individual Rat#7-12
  Plasma concentration: 687 ng/mL and 576 ng/mL and 603 ng/mL and 618 ng/mL and 608 ng/mL
Table S7, 100 mg/kg PO, 4 h, individual Rat#7-12
  Plasma concentration: 327 ng/mL and 399 ng/mL and 254 ng/mL and 397 ng/mL and 533 ng/mL and 391 ng/mL
Table S7, 100 mg/kg PO, 24 h, individual Rat#7-12
  Plasma concentration: 1.54 ng/mL
Table S7, 100 mg/kg PO, 48 h, individual Rat#7-12
  Plasma concentration: 1.74 ng/mL and 0.932 ng/mL and 2.71 ng/mL
Table S8, 200 mg/kg PO, 0.25 h, individual Rat#13-18
  Plasma concentration: 521 ng/mL and 371 ng/mL and 446 ng/mL and 365 ng/mL and 355 ng/mL
Table S8, 200 mg/kg PO, 0.5 h, individual Rat#13-18
  Plasma concentration: 1010 ng/mL and 1030 ng/mL and 881 ng/mL and 767 ng/mL and 804 ng/mL
Table S8, 200 mg/kg PO, 1 h, individual Rat#13-18
  Plasma concentration: 1430 ng/mL and 1360 ng/mL and 1370 ng/mL and 998 ng/mL and 1170 ng/mL
Table S8, 200 mg/kg PO, 2 h, individual Rat#13-18
  Plasma concentration: 924 ng/mL and 1210 ng/mL and 863 ng/mL and 728 ng/mL and 1320 ng/mL
Table S8, 200 mg/kg PO, 4 h, individual Rat#13-18
  Plasma concentration: 840 ng/mL and 470 ng/mL and 681 ng/mL and 692 ng/mL and 693 ng/mL and 972 ng/mL
Table S8, 200 mg/kg PO, 8 h, individual Rat#13-18
  Plasma concentration: 190 ng/mL and 163 ng/mL and 146 ng/mL and 225 ng/mL and 151 ng/mL and 358 ng/mL
Table S8, 200 mg/kg PO, 24 h, individual Rat#13-18
  Plasma concentration: 4.40 ng/mL and 1.85 ng/mL and 2.41 ng/mL and 2.18 ng/mL and 2.62 ng/mL and 16.5 ng/mL
Table S8, 200 mg/kg PO, 48 h, individual Rat#13-18
  Plasma concentration: 1.82 ng/mL and 0.916 ng/mL and 17.9 ng/mL and 1.14 ng/mL
